Results deposited as PubChem BioAssay AID1259405 (NCATS, 2018).

- Purpose: 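Mouse-designed siRNAs used to find CHO productivity engineering targets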 (primary screen)
- Cell system: Chinese hamster CHO-K1 ovary cells with stable secreted eGFP expression
- Reagent: single siRNA against mouse genes, 0.8 pmol siRNA per well (2 µl of 400 nM stock)
- Timing: 3 days
- Measured: 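Per-well intracellular GFP measured by laser scanning cytometry, plus viability from ATP luminescence, each relative to plate median of non-targeting control wells, in %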
- Direction: GFP, % of control: higher = more GFP per well, higher productivity; viability (ATP), % of control: higher = more viable cells (more ATP)
- Call rule: 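Called active when intracellular GFP, relative to negative control, is at or above 120%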
Here is an unselected part of about 50,000 deposited reagents. Over the whole deposit, about 4,000 (8%) are marked active. 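Mouse siRNA library applied to hamster cells; one well for each siRNA.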 The numbers tell different reagents against one gene apart.

Adam8 #1
- GFP, % of control: 176
- viability (ATP), % of control: 98.3
- Call: active

Adam8 #2
- GFP, % of control: 78.1
- viability (ATP), % of control: 93.8
- Call: inactive

Adam8 #3
- GFP, % of control: 78.5
- viability (ATP), % of control: 86.7
- Call: inactive

Fcgbp #1
- GFP, % of control: 166
- viability (ATP), % of control: 109
- Call: active

Fcgbp #2
- GFP, % of control: 76.8
- viability (ATP), % of control: 80.3
- Call: inactive

Fcgbp #3
- GFP, % of control: 116
- viability (ATP), % of control: 41.5
- Call: inactive

Alkbh5 #1
- GFP, % of control: 95.8
- viability (ATP), % of control: 89.2
- Call: inactive

Alkbh5 #2
- GFP, % of control: 74.2
- viability (ATP), % of control: 83.4
- Call: inactive

Alkbh5 #3
- GFP, % of control: 57.4
- viability (ATP), % of control: 64
- Call: inactive

Lyve1 #1
- GFP, % of control: 75.3
- viability (ATP), % of control: 86.4
- Call: inactive

Lyve1 #2
- GFP, % of control: 105
- viability (ATP), % of control: 88.7
- Call: inactive

Lyve1 #3
- GFP, % of control: 79.3
- viability (ATP), % of control: 93.1
- Call: inactive

Leng8 #1
- GFP, % of control: 93
- viability (ATP), % of control: 67.3
- Call: inactive

Leng8 #2
- GFP, % of control: 51.9
- viability (ATP), % of control: 68.3
- Call: inactive

Leng8 #3
- GFP, % of control: 98.6
- viability (ATP), % of control: 105
- Call: inactive

Pgap2 #1
- GFP, % of control: 72.1
- viability (ATP), % of control: 48
- Call: inactive

Pgap2 #2
- GFP, % of control: 76.4
- viability (ATP), % of control: 58.4
- Call: inactive

Pgap2 #3
- GFP, % of control: 68.5
- viability (ATP), % of control: 65.3
- Call: inactive

Mcat #1
- GFP, % of control: 144
- viability (ATP), % of control: 61.2
- Call: active

Mcat #2
- GFP, % of control: 102
- viability (ATP), % of control: 94.9
- Call: inactive

Mcat #3
- GFP, % of control: 26
- viability (ATP), % of control: 34.3
- Call: inactive

Eci3 #1
- GFP, % of control: 59.3
- viability (ATP), % of control: 76
- Call: inactive

Eci3 #2
- GFP, % of control: 78.5
- viability (ATP), % of control: 58.4
- Call: inactive

Eci3 #3
- GFP, % of control: 87.6
- viability (ATP), % of control: 93.3
- Call: inactive

Tmem81 #1
- GFP, % of control: 89.9
- viability (ATP), % of control: 84.4
- Call: inactive

Tmem81 #2
- GFP, % of control: 134
- viability (ATP), % of control: 117
- Call: active

Tmem81 #3
- GFP, % of control: 112
- viability (ATP), % of control: 94.2
- Call: inactive

Dbr1 #1
- GFP, % of control: 86.9
- viability (ATP), % of control: 65
- Call: inactive

Dbr1 #2
- GFP, % of control: 74.3
- viability (ATP), % of control: 68.9
- Call: inactive

Dbr1 #3
- GFP, % of control: 93.2
- viability (ATP), % of control: 77
- Call: inactive

Acads #1
- GFP, % of control: 89.5
- viability (ATP), % of control: 70.6
- Call: inactive

Acads #2
- GFP, % of control: 67.8
- viability (ATP), % of control: 70.5
- Call: inactive

Acads #3
- GFP, % of control: 94.6
- viability (ATP), % of control: 95.2
- Call: inactive

Tmem232 #1
- GFP, % of control: 56.5
- viability (ATP), % of control: 76.3
- Call: inactive

Tmem232 #2
- GFP, % of control: 73.4
- viability (ATP), % of control: 64.8
- Call: inactive

Tmem232 #3
- GFP, % of control: 55.2
- viability (ATP), % of control: 36.3
- Call: inactive

Eef1a1 #1
- GFP, % of control: 60.8
- viability (ATP), % of control: 84.2
- Call: inactive

Eef1a1 #2
- GFP, % of control: 34.8
- viability (ATP), % of control: 39.4
- Call: inactive

Eef1a1 #3
- GFP, % of control: 92.5
- viability (ATP), % of control: 34.9
- Call: inactive

Tapbp #1
- GFP, % of control: 62.9
- viability (ATP), % of control: 55.6
- Call: inactive

Tapbp #2
- GFP, % of control: 55.8
- viability (ATP), % of control: 41.3
- Call: inactive

Tapbp #3
- GFP, % of control: 55.9
- viability (ATP), % of control: 56.2
- Call: inactive
